Reference: the supplement of paper PMC7661543
± gives the standard deviation of the averaged measurements. The effect of the compound repeats well; differences between the knockouts mostly do not.

Legend:
HCC-38 = test: relative cell number vs DMSO control (72 h) (% of DMSO); higher = less growth inhibition (more cells)
Protocol: (§1)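 QMAP-Seq: a pool of 5 breast cancer cell lines (ZR-75-1, SKBR3, HCC-38, MDA-MB-231, BT-20), each carrying 12 doxycycline-inducible Cas9 sgRNA perturbations (11 knockouts plus non-targeting sgNT), was treated with compounds for 72 h at four 10-fold doses (10 nM-10 uM or 1 nM-1 uM range). Barcodes were amplified and sequenced, and cell number was interpolated from 293T spike-in standard curves. The result is expressed as % of the median of DMSO wells. Two biological replicates.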

BT-20 = test: as above
Protocol: as §1

O=C(c1ccc(/C=C/c2n[nH]c3ccccc23)cc1)N1CCNCC1 [KW2449]
relative cell number
Details	BT-20	HCC-38
sgRNA knockout: sgATF3, 10 nM	89.4 ± 20	90.2 ± 7
sgRNA knockout: sgATF3, 100 nM	87.9 ± 9.7	87.1 ± 7
sgRNA knockout: sgATF3, 1000 nM	93.5 ± 1.3	81.8 ± 2.2
sgRNA knockout: sgATF3, 10000 nM	67.6 ± 2.6	38.24 ± 0.36
sgRNA knockout: sgATF4, 10 nM	102 ± 10	82 ± 5
sgRNA knockout: sgATF4, 100 nM	94.9 ± 13	89.4 ± 3.8
sgRNA knockout: sgATF4, 1000 nM	105 ± 18	75.7 ± 0.87
sgRNA knockout: sgATF4, 10000 nM	88.7 ± 2.6	40.4 ± 8.8
sgRNA knockout: sgATF6, 10 nM	84.4 ± 18	84.9 ± 14
sgRNA knockout: sgATF6, 100 nM	96.9 ± 11	88.7 ± 19
sgRNA knockout: sgATF6, 1000 nM	100 ± 15	103 ± 15
sgRNA knockout: sgATF6, 10000 nM	75.4 ± 12	36.1 ± 5
sgRNA knockout: sgATG7, 10 nM	82.5 ± 5.5	96 ± 4
sgRNA knockout: sgATG7, 100 nM	92.2 ± 4.4	86.4 ± 2.1
sgRNA knockout: sgATG7, 1000 nM	106 ± 5.9	80.86 ± 0.56
sgRNA knockout: sgATG7, 10000 nM	73 ± 1.7	36 ± 2.6
sgRNA knockout: sgERN1, 10 nM	89.94 ± 0.43	100 ± 6.1
sgRNA knockout: sgERN1, 100 nM	93.3 ± 13	92.1 ± 6.1
sgRNA knockout: sgERN1, 1000 nM	97.2 ± 18	84.3 ± 3.7
sgRNA knockout: sgERN1, 10000 nM	75.1 ± 7.5	40.8 ± 10
sgRNA knockout: sgHSF1, 10 nM	101 ± 3.2	86.8 ± 6
sgRNA knockout: sgHSF1, 100 nM	94.5 ± 7.2	97.3 ± 2.2
sgRNA knockout: sgHSF1, 1000 nM	86.9 ± 4.8	98.4 ± 4.1
sgRNA knockout: sgHSF1, 10000 nM	69.5 ± 18	40.7 ± 8.3
sgRNA knockout: sgHSF2, 10 nM	81.1 ± 6.5	85.8 ± 11
sgRNA knockout: sgHSF2, 100 nM	88.5 ± 5.3	97.7 ± 6.7
sgRNA knockout: sgHSF2, 1000 nM	98 ± 18	97.4 ± 3.3
sgRNA knockout: sgHSF2, 10000 nM	75.1 ± 0.92	40.7 ± 2.3
sgRNA knockout: sgKEAP1, 10 nM	92.2 ± 13	81.1 ± 18
sgRNA knockout: sgKEAP1, 100 nM	87.6 ± 5.1	83.4 ± 2.2
sgRNA knockout: sgKEAP1, 1000 nM	88.5 ± 3.2	93.9 ± 1.1
sgRNA knockout: sgKEAP1, 10000 nM	90.9 ± 14	46.6 ± 9.2
sgRNA knockout: sgNFE2L2, 10 nM	105 ± 2.4	91.3 ± 4.6
sgRNA knockout: sgNFE2L2, 100 nM	102.8 ± 0.86	82.8 ± 8.1
sgRNA knockout: sgNFE2L2, 1000 nM	97.3 ± 18	70.8 ± 2
sgRNA knockout: sgNFE2L2, 10000 nM	89.8 ± 3.9	35.1 ± 10
sgRNA knockout: sgSLC35F2, 10 nM	83.7 ± 5.2	95.6 ± 2.7
sgRNA knockout: sgSLC35F2, 100 nM	84.7 ± 2.4	83.9 ± 1.2
sgRNA knockout: sgSLC35F2, 1000 nM	100 ± 8.1	82.4 ± 5.8
sgRNA knockout: sgSLC35F2, 10000 nM	77.5 ± 5.5	33.8 ± 0.61
sgRNA knockout: sgXBP1, 10 nM	99.4 ± 12	87.5 ± 3.4
sgRNA knockout: sgXBP1, 100 nM	94.9 ± 6.1	85.9 ± 3.5
sgRNA knockout: sgXBP1, 1000 nM	108 ± 3.8	76.97 ± 0.32
sgRNA knockout: sgXBP1, 10000 nM	76.1 ± 2.1	38.5 ± 4.5

CCOC(=O)CCNc1cc(N2CCc3ccccc3CC2)nc(-c2ccccn2)n1 [GSKJ4]
relative cell number
Details	BT-20	HCC-38
sgRNA knockout: sgATF3, 10 nM	98 ± 12	102 ± 12
sgRNA knockout: sgATF3, 100 nM	103 ± 13	101 ± 1.2
sgRNA knockout: sgATF3, 1000 nM	106 ± 12	104 ± 7
sgRNA knockout: sgATF3, 10000 nM	52.8 ± 3.5	56.7 ± 2.4
sgRNA knockout: sgATF4, 10 nM	102 ± 8.4	98 ± 11
sgRNA knockout: sgATF4, 100 nM	116 ± 2.3	109 ± 1.1
sgRNA knockout: sgATF4, 1000 nM	108 ± 26	96.4 ± 6.8
sgRNA knockout: sgATF4, 10000 nM	44.76 ± 0.092	58.4 ± 2.4
sgRNA knockout: sgATF6, 10 nM	93.9 ± 13	104.5 ± 0.13
sgRNA knockout: sgATF6, 100 nM	103 ± 12	123 ± 4.8
sgRNA knockout: sgATF6, 1000 nM	92.6 ± 29	84 ± 21
sgRNA knockout: sgATF6, 10000 nM	53.4 ± 9.9	67.7 ± 5.2
sgRNA knockout: sgATG7, 10 nM	84.4 ± 6.7	99.8 ± 13
sgRNA knockout: sgATG7, 100 nM	107 ± 1.4	117 ± 4.1
sgRNA knockout: sgATG7, 1000 nM	113 ± 19	95.2 ± 14
sgRNA knockout: sgATG7, 10000 nM	61.6 ± 6.9	55 ± 0.6
sgRNA knockout: sgERN1, 10 nM	97.6 ± 17	102 ± 7.2
sgRNA knockout: sgERN1, 100 nM	102 ± 3.3	111 ± 4.6
sgRNA knockout: sgERN1, 1000 nM	90.4 ± 20	96 ± 15
sgRNA knockout: sgERN1, 10000 nM	53.76 ± 0.28	52.7 ± 2.4
sgRNA knockout: sgHSF1, 10 nM	102 ± 10	108 ± 19
sgRNA knockout: sgHSF1, 100 nM	96.07 ± 0.66	106 ± 22
sgRNA knockout: sgHSF1, 1000 nM	95.5 ± 14	111 ± 19
sgRNA knockout: sgHSF1, 10000 nM	53.9 ± 5.3	70.6 ± 3.2
sgRNA knockout: sgHSF2, 10 nM	84.3 ± 24	96.1 ± 5.6
sgRNA knockout: sgHSF2, 100 nM	94.6 ± 12	118 ± 3.5
sgRNA knockout: sgHSF2, 1000 nM	107 ± 30	97.6 ± 17
sgRNA knockout: sgHSF2, 10000 nM	53.97 ± 0.34	52.98 ± 0.25
sgRNA knockout: sgKEAP1, 10 nM	101 ± 10	92.9 ± 11
sgRNA knockout: sgKEAP1, 100 nM	100 ± 3	125.9 ± 0.63
sgRNA knockout: sgKEAP1, 1000 nM	93.09 ± 0.42	113 ± 15
sgRNA knockout: sgKEAP1, 10000 nM	49.9 ± 3.2	55.4 ± 13
sgRNA knockout: sgNFE2L2, 10 nM	112 ± 18	94 ± 20
sgRNA knockout: sgNFE2L2, 100 nM	110 ± 12	105 ± 1.2
sgRNA knockout: sgNFE2L2, 1000 nM	101 ± 16	93.1 ± 15
sgRNA knockout: sgNFE2L2, 10000 nM	45.6 ± 7	53.2 ± 3.5
sgRNA knockout: sgSLC35F2, 10 nM	104 ± 10	109 ± 1.7
sgRNA knockout: sgSLC35F2, 100 nM	107 ± 18	104 ± 5.4
sgRNA knockout: sgSLC35F2, 1000 nM	102 ± 15	96.4 ± 16
sgRNA knockout: sgSLC35F2, 10000 nM	55.5 ± 2.5	56.4 ± 4.5
sgRNA knockout: sgXBP1, 10 nM	96.5 ± 8.3	91.8 ± 8.2
sgRNA knockout: sgXBP1, 100 nM	112 ± 4.6	106 ± 18
sgRNA knockout: sgXBP1, 1000 nM	102 ± 14	95.6 ± 16
sgRNA knockout: sgXBP1, 10000 nM	48.7 ± 2.2	58.3 ± 5.2

C=CC[C@@H]1/C=C(\C)C[C@H](C)C[C@H](OC)[C@H]2O[C@@](O)(C(=O)C(=O)N3CCCC[C@H]3C(=O)O[C@H](/C(C)=C/[C@@H]3CC[C@@H](O)[C@H](OC)C3)[C@H](C)[C@@H](O)CC1=O)[C@H](C)C[C@@H]2OC [Tacrolimus]
relative cell number
Details	BT-20	HCC-38
sgRNA knockout: sgATF3, 10 nM	119 ± 17	137 ± 14
sgRNA knockout: sgATF3, 100 nM	93.8 ± 8.8	110 ± 5.4
sgRNA knockout: sgATF3, 1000 nM	110 ± 1.3	124 ± 17
sgRNA knockout: sgATF3, 10000 nM	111 ± 17	127 ± 4.1
sgRNA knockout: sgATF4, 10 nM	127 ± 8.8	128 ± 16
sgRNA knockout: sgATF4, 100 nM	96.4 ± 11	109 ± 2.3
sgRNA knockout: sgATF4, 1000 nM	101 ± 21	118 ± 24
sgRNA knockout: sgATF4, 10000 nM	117 ± 10	121 ± 1.5
sgRNA knockout: sgATF6, 10 nM	111 ± 21	153 ± 4.2
sgRNA knockout: sgATF6, 100 nM	113 ± 22	128 ± 13
sgRNA knockout: sgATF6, 1000 nM	96.41 ± 0.91	127 ± 23
sgRNA knockout: sgATF6, 10000 nM	93 ± 35	137.8 ± 0.91
sgRNA knockout: sgATG7, 10 nM	121 ± 1.6	122 ± 1.4
sgRNA knockout: sgATG7, 100 nM	92.3 ± 11	104 ± 8.9
sgRNA knockout: sgATG7, 1000 nM	100 ± 25	124 ± 26
sgRNA knockout: sgATG7, 10000 nM	115 ± 6.7	122.8 ± 1.1
sgRNA knockout: sgERN1, 10 nM	110 ± 11	130 ± 3.1
sgRNA knockout: sgERN1, 100 nM	93.38 ± 0.65	100 ± 1.1
sgRNA knockout: sgERN1, 1000 nM	113 ± 26	134 ± 27
sgRNA knockout: sgERN1, 10000 nM	109 ± 1.5	138 ± 7.2
sgRNA knockout: sgHSF1, 10 nM	123 ± 3.4	154 ± 20
sgRNA knockout: sgHSF1, 100 nM	83.7 ± 12	126 ± 20
sgRNA knockout: sgHSF1, 1000 nM	98.4 ± 2.5	132 ± 36
sgRNA knockout: sgHSF1, 10000 nM	101 ± 2.8	169 ± 2.9
sgRNA knockout: sgHSF2, 10 nM	119 ± 15	143 ± 12
sgRNA knockout: sgHSF2, 100 nM	91.1 ± 9.2	112 ± 5.7
sgRNA knockout: sgHSF2, 1000 nM	107 ± 24	132 ± 23
sgRNA knockout: sgHSF2, 10000 nM	113 ± 6.8	142 ± 17
sgRNA knockout: sgKEAP1, 10 nM	116 ± 7.3	157.2 ± 1.1
sgRNA knockout: sgKEAP1, 100 nM	97 ± 13	120 ± 15
sgRNA knockout: sgKEAP1, 1000 nM	106 ± 13	129 ± 23
sgRNA knockout: sgKEAP1, 10000 nM	96 ± 3.9	185 ± 2.4
sgRNA knockout: sgNFE2L2, 10 nM	138 ± 9.6	126 ± 12
sgRNA knockout: sgNFE2L2, 100 nM	108 ± 11	104.8 ± 0.28
sgRNA knockout: sgNFE2L2, 1000 nM	135 ± 32	121 ± 29
sgRNA knockout: sgNFE2L2, 10000 nM	147 ± 14	121 ± 5.2
sgRNA knockout: sgSLC35F2, 10 nM	124 ± 5.5	122 ± 9.2
sgRNA knockout: sgSLC35F2, 100 nM	107 ± 16	106 ± 1.3
sgRNA knockout: sgSLC35F2, 1000 nM	116 ± 28	121 ± 34
sgRNA knockout: sgSLC35F2, 10000 nM	88.9 ± 5.8	129 ± 1.9
sgRNA knockout: sgXBP1, 10 nM	108 ± 3.9	126 ± 4.8
sgRNA knockout: sgXBP1, 100 nM	104 ± 2.1	109.5 ± 1
sgRNA knockout: sgXBP1, 1000 nM	116 ± 28	119 ± 33
sgRNA knockout: sgXBP1, 10000 nM	113.6 ± 0.65	132 ± 4.2
